Results published in PMC12431657, “Discovery and mechanistic insights of dibenzoylmethane as a broad spectrum inhibitor of coronavirus” (PLOS Pathogens, 2025).
Where a name gives a salt, the structure may show the parent alone. Read-outs that look alike come from different tables or passages of the source. Screen size: about 3,300 compounds; about 60 (2%) showed an effect of 50% or more. This is one part of the list.

Tested on: HCoV-OC43
Parameters: species or system RD; HTS, protection from HCoV-OC43 induced cell death, luminescent cell viability (CellCounting-Lite 2.0), inhibition rate
Conditions: 24 h post infection, 1 h compound pre-incubation, 10 µM, inhibitor

SMILES | OC43 Inhibition rate [%] | OC43 Inhibition rate (OC43 Inhibition rate, 24 h) [%]
CCCCCCCCC[C@H](O)CC(=O)CCc1ccc(O)c(OC)c1 [10-Gingerol] | -1.5 | –
CN[C@@H]1[C@H](O[C@H]2[C@H](O[C@H]3[C@H](O)[C@@H](O)[C@H](N=C(N)N)[C@@H](O)[C@@H]3N=C(N)N)O[C@@H](C)[C@]2(O)C=O)O[C@@H](CO)[C@H](O)[C@H]1O [Streptomycin (sulfate)] | -7.3 | –
CC1(C)O[C@H]2[C@H](O)CC(C(=O)O)=C[C@H]2O1 [3,4-O-Isopropylidene-shikimic acid] | -0.8 | –
COc1cc(CNC(=O)CCCC/C=C/C(C)C)ccc1O[C@@H]1O[C@H](CO)[C@@H](O)[C@H](O)[C@H]1O [Capsaicin β-D-glucopyranoside] | 0.3 | –
C=C1[C@@H](O)[C@]23C[C@@H]1[C@@H](O)C[C@H]2[C@@]12C4[C@@H]3C[C@@H]1[C@@](C)(CC[C@@H]2O)CN4CC [12-Epinapelline] | 2.1 | –
O=C(O)/C=C/c1ccc2c(c1)OCO2 [(E)-3,4-(Methylenedioxy)cinnamic acid] | – | -0.3
CSCC[C@H](NC(C)=O)C(=O)O [N-Acetyl-L-methionine] | 0.8 | –
CCCCCCCCCCCO [1-Undecanol] | -1.7 | –
COc1cccc2c1C(=O)c1c(O)c3c(c(O)c1C2=O)C[C@@](O)(C(=O)CO)C[C@@H]3O[C@H]1C[C@H](N)[C@H](O)[C@H](C)O1 [Doxorubicin (hydrochloride)] | -6.5 | –
COc1ccc2c3c1O[C@H]1C[C@@H](O)C=C[C@@]31CC[N+](C)([O-])C2 (stereo partly shown) [Galanthamine N-Oxide] | -1.6 | –
C=CC(C)(C)O[C@@H]1O[C@H](CO)[C@@H](O)[C@H](O)[C@H]1O [Crenulatin] | -0.3 | –
CC1(C)[C@H](OC(=O)c2ccccc2)CC[C@]2(C)C3=CC[C@@]4(C)[C@@H]5C[C@](C)(COC(=O)c6ccccc6)CC[C@]5(C)CC[C@]4(C)C3=CC[C@@H]12 [3,29-O-Dibenzoyloxykarounidiol] | -4.4 | –
COc1cc(O)c2c(=O)c(O[C@@H]3O[C@H](CO[C@@H]4O[C@@H](C)[C@H](O)[C@@H](O)[C@H]4O)[C@@H](O)[C@H](O)[C@H]3O)c(-c3ccc(OC)c(O)c3)oc2c1 [Ombuoside] | -0.8 | –
NC(N)=N[C@@H](CC(=O)O)C(=O)O [Guanidinosuccinic acid] | -0.1 | –
O=C(O)/C=C/CCCCCCCCC(=O)O [Traumatic Acid] | 2.5 | –
O=C(OC[C@H]1O[C@@H](OC(=O)c2cc(O)c(O)c(OC(=O)c3cc(O)c(O)c(O)c3)c2)[C@H](OC(=O)c2cc(O)c(O)c(OC(=O)c3cc(O)c(O)c(O)c3)c2)[C@@H](OC(=O)c2cc(O)c(O)c(OC(=O)c3cc(O)c(O)c(O)c3)c2)[C@@H]1OC(=O)c1cc(O)c(O)c(OC(=O)c2cc(O)c(O)c(O)c2)c1)c1cc(O)c(O)c(OC(=O)c2cc(O)c(O)c(O)c2)c1 [Tannic acid] | -1.3 | –

Copied from the listing (two entries):
SMILES | OC43 Inhibition rate [%] | OC43 Inhibition rate (OC43 Inhibition rate, 24 h) [%]
COc1cc(CNC(=O)CCCC/C=C/C(C)C)ccc1O[C@@H]1O[C@H](CO)[C@@H](O)[C@H](O)[C@H]1O [Capsaicin β-D-glucopyranoside] | 0.3 | –
C=C1[C@@H](O)[C@]23C[C@@H]1[C@@H](O)C[C@H]2[C@@]12C4[C@@H]3C[C@@H]1[C@@](C)(CC[C@@H]2O)CN4CC [12-Epinapelline] | 2.1 | –
